Assay results from publication PMC8580996, “2-Oxoglutarate derivatives can selectively enhance or inhibit the activity of human oxygenases” (Nature Communications, 2021).
Where “and” joins values, the source holds several entries; their conditions need not be identical. Equal entries are not always repeated. The source gives many values for each of these; only a part stands here. Values belong to the molecule of their own block, whether it stands above or below them.

By UniProt entry, the sequences of proteins in these tests, tags left out. Where a name states a change or a piece, a line headed by the entry shows the natural chain unless it says otherwise.
UniProt Q9NWT6: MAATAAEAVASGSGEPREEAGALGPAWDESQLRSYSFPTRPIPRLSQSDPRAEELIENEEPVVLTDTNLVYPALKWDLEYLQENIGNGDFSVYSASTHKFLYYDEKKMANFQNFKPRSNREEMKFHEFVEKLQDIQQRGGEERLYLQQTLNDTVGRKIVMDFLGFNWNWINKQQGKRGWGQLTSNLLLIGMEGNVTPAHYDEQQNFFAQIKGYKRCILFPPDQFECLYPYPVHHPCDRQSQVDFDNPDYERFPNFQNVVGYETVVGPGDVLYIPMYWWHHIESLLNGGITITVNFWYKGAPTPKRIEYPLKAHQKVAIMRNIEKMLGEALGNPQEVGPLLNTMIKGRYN

Target: FIH (Homo sapiens, UniProt Q9NWT6)
Test: FIH steady-state kinetic parameters (SPE-MS, initial hydroxylation rates)
Format: biochemical
Procedure: Final 2OG/2OG derivative concentrations are given in Supplementary Figs. 5 and 6. Reactions were monitored with a rate of ~1 sample/40 s using the same SPE-MS configuration as described above. Data were analyzed as described above and the slopes of the initial reaction rates (Supplementary Figs. 5 and 6) fitted to a Michaelis–Menten plot using non-linear regression (GraphPad Prism 5). […]
determine kinetic parameters for 2OG derivatives (continues on the following page). Maximum velocities (vapp ) and Michaelis constants (Kapp) of FIH were determined in independent triplicates for 2OG and the 2OG […]
SPE-MS as described in the Methods section. […]
acid (LAA), and 20 μM ammonium iron(II) sulfate hexahydrate (FAS, (NH4)2Fe(SO4)2·6H2O) in buffer (50 mM […]
Tris, 50 mM NaCl, pH 7.5, 20° C). […]
data are provided as a Source Data file. […]
concentrations of 2OG; (b) hydroxylation rates used to determine kinetic parameters of FIH for 2OG; (c) time […]
3-methyl-2OG (1); (d) hydroxylation rates used to determine kinetic parameters of FIH for 1; (e) time course of […]
2OG (12); (f) hydroxylation rates used to determine kinetic parameters of FIH for 12; (g) time course of the FIH- […]
(h) hydroxylation rates used to determine kinetic parameters of FIH for 14; (i) time course of the FIH-catalyzed […]
(carboxycarbonyl)cyclopentane-1-carboxylic acid (22); (j) hydroxylation rates used to determine kinetic parameters of FIH for 22.
Supplementary Figure 6. Hydroxylation rates of FIH-catalyzed CA1-20 hydroxylations used to determine kinetic parameters for 2OG derivatives (continues on the following page). Maximum velocities (vapp ) and […]
ammonium iron(II) sulfate hexahydrate (FAS, (NH4)2Fe(SO4)2·6H2O) in buffer (50 mM Tris, 50 mM NaCl, pH […]
Source data are provided as a Source […]
of 2OG; (b) hydroxylation rates used to determine kinetic parameters of FIH for 2OG; (c) time course of the FIH-catalyzed hydroxylation reaction of the CA1-20 peptide for the shown concentrations of 3-methyl-2OG (1); (d) hydroxylation rates used to determine kinetic parameters of FIH for 1; (e) time course of the FIH -catalyzed hydroxylation reaction of the CA 1-20 peptide for the shown concentrations of 4 -methyl-2OG (12); (f) hydroxylation rates used to determine kinetic parameters of FIH for 12; (g) time course of the FIH-catalyzed hydroxylation reaction of the CA1-20 peptide for the shown concentrations of 4-ethyl-2OG (14); (h) hydroxylation rates used to determine kinetic parameters of FIH for 14; (i) time course of the FIH-catalyzed hydroxylation reaction of the CA1-20 peptide for the shown concentrations of 3-(carboxycarbonyl)cyclopentane-1-carboxylic acid (22); (j) hydroxylation rates used to determine kinetic parameters of FIH for 22.

SPE-MS determined concentration of hydroxylated HIF-1a peptide (0.5 uM compound 1, time 4.19733 min): 0.09985 µM and 0.1367 µM and 0.0999 µM
SPE-MS determined concentration of hydroxylated HIF-1a peptide (0.5 uM compound 1, time 4.89717 min): 0.1183 µM and 0.1518 µM and 0.1027 µM
SPE-MS determined concentration of hydroxylated HIF-1a peptide (0.5 uM compound 1, time 5.5955 min): 0.1128 µM and 0.1571 µM and 0.1146 µM
SPE-MS determined concentration of hydroxylated HIF-1a peptide (0.5 uM compound 1, time 6.29533 min): 0.1153 µM and 0.1469 µM and 0.12 µM
SPE-MS determined concentration of hydroxylated HIF-1a peptide (1 uM compound 1, time 3.49667 min): 0.1617 µM and 0.1864 µM
SPE-MS determined concentration of hydroxylated HIF-1a peptide (1 uM compound 1, time 4.19733 min): 0.1549 µM and 0.1772 µM and 0.203 µM
SPE-MS determined concentration of hydroxylated HIF-1a peptide (1 uM compound 1, time 4.89717 min): 0.1638 µM and 0.199 µM and 0.2251 µM
SPE-MS determined concentration of hydroxylated HIF-1a peptide (1 uM compound 1, time 5.5955 min): 0.1763 µM and 0.1946 µM and 0.2233 µM
SPE-MS determined concentration of hydroxylated HIF-1a peptide (1 uM compound 1, time 6.29533 min): 0.1801 µM and 0.2001 µM and 0.2329 µM
SPE-MS determined concentration of hydroxylated HIF-1a peptide (2 uM compound 1, time 4.19733 min): 0.29 µM and 0.301 µM and 0.2508 µM
SPE-MS determined concentration of hydroxylated HIF-1a peptide (2 uM compound 1, time 4.89717 min): 0.3091 µM and 0.3314 µM and 0.2774 µM
SPE-MS determined concentration of hydroxylated HIF-1a peptide (2 uM compound 1, time 5.5955 min): 0.3128 µM and 0.3566 µM and 0.2878 µM
SPE-MS determined concentration of hydroxylated HIF-1a peptide (2 uM compound 1, time 6.29533 min): 0.3204 µM and 0.3536 µM and 0.2852 µM
SPE-MS determined concentration of hydroxylated HIF-1a peptide (4 uM compound 1, time 4.19733 min): 0.4238 µM and 0.439 µM and 0.3845 µM
SPE-MS determined concentration of hydroxylated HIF-1a peptide (4 uM compound 1, time 4.89717 min): 0.4637 µM and 0.4839 µM and 0.4289 µM
SPE-MS determined concentration of hydroxylated HIF-1a peptide (4 uM compound 1, time 5.5955 min): 0.4881 µM and 0.5234 µM and 0.4502 µM
SPE-MS determined concentration of hydroxylated HIF-1a peptide (4 uM compound 1, time 6.29533 min): 0.4868 µM and 0.5247 µM and 0.4418 µM
SPE-MS determined concentration of hydroxylated HIF-1a peptide (8 uM compound 1, time 4.19733 min): 0.5414 µM and 0.5327 µM and 0.4646 µM
SPE-MS determined concentration of hydroxylated HIF-1a peptide (8 uM compound 1, time 4.89717 min): 0.6039 µM and 0.5792 µM and 0.4997 µM
SPE-MS determined concentration of hydroxylated HIF-1a peptide (8 uM compound 1, time 5.5955 min): 0.6269 µM and 0.6162 µM and 0.5347 µM
SPE-MS determined concentration of hydroxylated HIF-1a peptide (8 uM compound 1, time 6.29533 min): 0.6572 µM and 0.6309 µM and 0.5551 µM
SPE-MS determined concentration of hydroxylated HIF-1a peptide (16 uM compound 1, time 4.19733 min): 0.7257 µM and 0.6409 µM and 0.6248 µM
SPE-MS determined concentration of hydroxylated HIF-1a peptide (16 uM compound 1, time 4.89717 min): 0.8191 µM and 0.7031 µM and 0.6964 µM
SPE-MS determined concentration of hydroxylated HIF-1a peptide (16 uM compound 1, time 5.5955 min): 0.8529 µM and 0.7673 µM and 0.7539 µM
SPE-MS determined concentration of hydroxylated HIF-1a peptide (16 uM compound 1, time 6.29533 min): 0.8659 µM and 0.793 µM and 0.7641 µM
SPE-MS determined concentration of hydroxylated HIF-1a peptide (32 uM compound 1, time 4.19733 min): 0.6566 µM and 0.7389 µM and 0.664 µM
SPE-MS determined concentration of hydroxylated HIF-1a peptide (32 uM compound 1, time 4.89717 min): 0.7196 µM and 0.8012 µM and 0.7239 µM
SPE-MS determined concentration of hydroxylated HIF-1a peptide (32 uM compound 1, time 5.5955 min): 0.7729 µM and 0.8791 µM and 0.7696 µM
SPE-MS determined concentration of hydroxylated HIF-1a peptide (32 uM compound 1, time 6.29533 min): 0.7734 µM and 0.9001 µM and 0.7605 µM
SMILES: CC(CC(=O)O)C(=O)C(=O)O (stereo not drawn) [compound 1, 3-methyl-2OG]

SPE-MS determined concentration of hydroxylated HIF-1a peptide (0.5 uM compound 14, time 4.89717 min): 0.05875 µM and 0.09521 µM and 0.09669 µM
SPE-MS determined concentration of hydroxylated HIF-1a peptide (0.5 uM compound 14, time 5.5955 min): 0.06431 µM and 0.101 µM and 0.1081 µM
SPE-MS determined concentration of hydroxylated HIF-1a peptide (0.5 uM compound 14, time 6.29533 min): 0.06659 µM and 0.1029 µM and 0.1101 µM
SPE-MS determined concentration of hydroxylated HIF-1a peptide (1 uM compound 14, time 4.19733 min): 0.088 µM and 0.1147 µM
SPE-MS determined concentration of hydroxylated HIF-1a peptide (1 uM compound 14, time 4.89717 min): 0.1407 µM and 0.1033 µM and 0.1222 µM
SPE-MS determined concentration of hydroxylated HIF-1a peptide (1 uM compound 14, time 5.5955 min): 0.152 µM and 0.1039 µM and 0.1267 µM
SPE-MS determined concentration of hydroxylated HIF-1a peptide (1 uM compound 14, time 6.29533 min): 0.1529 µM and 0.1148 µM and 0.1306 µM
SPE-MS determined concentration of hydroxylated HIF-1a peptide (2 uM compound 14, time 4.89717 min): 0.1353 µM and 0.1702 µM and 0.1718 µM
SPE-MS determined concentration of hydroxylated HIF-1a peptide (2 uM compound 14, time 5.5955 min): 0.1467 µM and 0.176 µM and 0.1861 µM
SPE-MS determined concentration of hydroxylated HIF-1a peptide (2 uM compound 14, time 6.29533 min): 0.1606 µM and 0.183 µM and 0.1888 µM
SPE-MS determined concentration of hydroxylated HIF-1a peptide (4 uM compound 14, time 4.89717 min): 0.1784 µM and 0.2029 µM and 0.2431 µM
SPE-MS determined concentration of hydroxylated HIF-1a peptide (4 uM compound 14, time 5.5955 min): 0.2027 µM and 0.2144 µM and 0.2572 µM
SPE-MS determined concentration of hydroxylated HIF-1a peptide (4 uM compound 14, time 6.29533 min): 0.2105 µM and 0.2205 µM and 0.2672 µM
SPE-MS determined concentration of hydroxylated HIF-1a peptide (8 uM compound 14, time 4.89717 min): 0.2053 µM and 0.2339 µM and 0.2323 µM
SPE-MS determined concentration of hydroxylated HIF-1a peptide (8 uM compound 14, time 5.5955 min): 0.2224 µM and 0.2567 µM and 0.2571 µM
SPE-MS determined concentration of hydroxylated HIF-1a peptide (8 uM compound 14, time 6.29533 min): 0.236 µM and 0.2596 µM and 0.2659 µM
SPE-MS determined concentration of hydroxylated HIF-1a peptide (16 uM compound 14, time 4.89717 min): 0.2173 µM and 0.2363 µM and 0.2445 µM
SPE-MS determined concentration of hydroxylated HIF-1a peptide (16 uM compound 14, time 5.5955 min): 0.234 µM and 0.2621 µM and 0.2714 µM
SPE-MS determined concentration of hydroxylated HIF-1a peptide (16 uM compound 14, time 6.29533 min): 0.2514 µM and 0.2668 µM and 0.2925 µM
SPE-MS determined concentration of hydroxylated HIF-1a peptide (32 uM compound 14, time 4.89717 min): 0.2305 µM and 0.2331 µM and 0.2603 µM
SPE-MS determined concentration of hydroxylated HIF-1a peptide (32 uM compound 14, time 5.5955 min): 0.2574 µM and 0.2518 µM and 0.275 µM
SPE-MS determined concentration of hydroxylated HIF-1a peptide (32 uM compound 14, time 6.29533 min): 0.2755 µM and 0.2695 µM and 0.2898 µM
SMILES: CCC(CC(=O)C(=O)O)C(=O)O (stereo not drawn) [compound 14, 4-ethyl-2OG]
